According to paper PMC5004903:
No constants are given. Whether binding was seen depends on the method and setting. Binding seen in cells or lysates may run through a third protein. Some results given as binding are weak or reduced against the parent protein; the word gives no strength. For some of these results: Tags and fused reporters may be left off the sequences shown.

T1: JARID2 (endogenous) (mouse (endogenous in E14 mESCs)), Q62315
T1 chain: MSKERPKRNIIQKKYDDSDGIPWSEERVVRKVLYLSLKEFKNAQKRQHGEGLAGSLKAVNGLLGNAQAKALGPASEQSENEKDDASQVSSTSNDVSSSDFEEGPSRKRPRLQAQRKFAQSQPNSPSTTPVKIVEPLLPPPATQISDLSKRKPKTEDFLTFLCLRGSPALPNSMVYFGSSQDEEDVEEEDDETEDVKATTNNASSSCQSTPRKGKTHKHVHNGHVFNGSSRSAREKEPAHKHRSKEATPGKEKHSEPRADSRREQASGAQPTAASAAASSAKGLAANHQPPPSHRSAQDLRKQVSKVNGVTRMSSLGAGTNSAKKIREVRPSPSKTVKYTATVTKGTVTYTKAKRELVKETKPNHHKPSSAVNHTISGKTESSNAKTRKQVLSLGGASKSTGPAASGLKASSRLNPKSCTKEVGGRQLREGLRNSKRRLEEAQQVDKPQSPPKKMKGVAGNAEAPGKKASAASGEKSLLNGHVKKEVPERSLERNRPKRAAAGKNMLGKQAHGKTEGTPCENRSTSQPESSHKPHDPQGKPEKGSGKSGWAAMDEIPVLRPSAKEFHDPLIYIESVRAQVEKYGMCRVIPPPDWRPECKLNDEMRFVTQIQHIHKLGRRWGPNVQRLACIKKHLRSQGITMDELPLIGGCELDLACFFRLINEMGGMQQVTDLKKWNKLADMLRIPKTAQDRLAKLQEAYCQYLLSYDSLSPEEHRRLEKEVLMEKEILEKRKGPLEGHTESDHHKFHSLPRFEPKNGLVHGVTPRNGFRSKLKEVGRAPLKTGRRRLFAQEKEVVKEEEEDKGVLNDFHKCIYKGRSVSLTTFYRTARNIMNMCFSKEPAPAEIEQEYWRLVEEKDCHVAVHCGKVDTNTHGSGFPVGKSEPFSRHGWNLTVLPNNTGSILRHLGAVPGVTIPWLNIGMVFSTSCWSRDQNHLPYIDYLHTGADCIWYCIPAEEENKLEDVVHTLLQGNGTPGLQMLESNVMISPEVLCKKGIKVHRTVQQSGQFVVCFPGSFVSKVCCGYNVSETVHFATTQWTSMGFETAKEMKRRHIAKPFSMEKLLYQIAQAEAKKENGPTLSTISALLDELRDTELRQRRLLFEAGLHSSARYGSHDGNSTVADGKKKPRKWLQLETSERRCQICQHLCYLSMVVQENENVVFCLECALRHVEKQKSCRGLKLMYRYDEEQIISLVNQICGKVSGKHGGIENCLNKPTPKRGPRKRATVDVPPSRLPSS

T2: FS2-tagged C17ORF96 homologue (UniProt Q7TNS8)
T2 sequence: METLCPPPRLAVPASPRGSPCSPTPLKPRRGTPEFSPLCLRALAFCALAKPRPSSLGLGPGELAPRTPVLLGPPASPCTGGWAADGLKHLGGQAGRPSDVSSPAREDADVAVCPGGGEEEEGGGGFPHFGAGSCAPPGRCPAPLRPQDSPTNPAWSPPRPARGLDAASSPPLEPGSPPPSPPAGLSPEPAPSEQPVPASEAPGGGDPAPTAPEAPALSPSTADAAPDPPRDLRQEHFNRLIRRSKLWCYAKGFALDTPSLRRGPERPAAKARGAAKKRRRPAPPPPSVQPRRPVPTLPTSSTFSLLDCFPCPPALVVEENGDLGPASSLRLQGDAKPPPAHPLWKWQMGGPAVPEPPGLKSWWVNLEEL

B1: JARID2 (endogenous), Q62315 1-1234 (protein)
chain: T1 chain
B2: PCL2 (MTF2), endogenous, Q02395 1-593 (protein)
chain: MRDSTGAGNSLVHKRSPLRRNQKTSASLNKLSLQDGHKAKKPACKFEEGQDVLARWSDGLFYLGTIKKINILKQSCFIIFEDSSKSWVLWKDIQTGATGSGEMVCTICQEEYSEAPNEMVICDKCGQGYHQLCHTPHIDSSVIDSDEKWLCRQCVFATTTKRGGALKKGPNAKALQVMKQTLPYSVADLEWDAGHKTNVQQCYCYCGGPGDWYLKMLQCCKCKQWFHEACVQCLQKPMLFGDRFYTFICSVCSSGPEYLKRLPLQWVDIAHLCLYNLSVIHKKKYFDSELELMTYINENWDRLHPGELADTPKSERYEHVLEALNDYKTMFMSGKEIKKKKHLFGLRIRVPPVPPNVAFKAEKEPEGTSHEFKIKGRKASKPTSDSREVSNGIEKKGKKKSVGRPPGPYTRKMIQKTAELPLDKESVSENPTLDLPCSIGRTEGIAHSSNTSDVDLTGASSANETTSASISRHCGLSDSRKRTRTGRSWPAAIPHLRRRRGRLPRRALQTQNSEVVKDDEGKEDYQFEELNTEILNNLADQELQLNHLKNSITSYFGAAGRIACGEKYRVLARRVTLDGKVQYLVEWEGATAS
B3: AEBP2 (endogenous) (protein, UniProt Q9Z248 1-504)
chain: MAAALADMADLEELSRLSPLSPGSPGPAARGRAEPPEEEEEEDDEEAEAEAVAALLLNGGAGGGAGGGEAETMSEPSPESASQAGGDEDEDEEDDEDEGSSSGGAEEESSAESLVGSSSGGCSGDETRSLSPGAASSSSGDGDGKEGLEEPKGPRGGPGGPGSSGGGSSSSSVVSSGGDEGYGTGGGGSSATSGGRRGSLEMSSDGEPLSRMDSEDSISSTLMDIDSTISSGRSTPAMMNGQGSTTASSKHIAYNCCWDQCQACFNSSPDLADHIRSIHVDGQRGGVFVCLWKGCKVYNTPSTSQSWLQRHMLTHSGDKPFKCVVGGCNASFASQGGLARHVPTHFSQQNSSKVSSQPKAKEESPSKAGMNKRRKLKNKRRRSLPRPHDFFDAQTLDAIRHRAICFNLSAHIESLGKGHSVVFHSTVIAKRKEESGKIKLLLHWMPEDILPDVWVNESERHQLKTKVVHLSKLPKDTALLLDPNIYRTMPQKRLKRFDILNFPR
B4: JARID2 (endogenous) (protein, UniProt Q62315 1-1234)
chain: T1 chain

Experiments:
[1] = target: EZH2 (endogenous) (mouse (endogenous in E14 mESCs)), Q61188; assay: co-IP; co-immunoprecipitation of endogenous PRC2 subunits in Aebp2 WT and Aebp2 tr/tr mESCs, immunoblot; settings: remark: other sources report otherwise
[2] = target: T1, JARID2 (endogenous) (mouse (endogenous …)); assay: as above; settings: remark: other sources report otherwise
[3] = target: T2, FS2-tagged C17ORF96 homologue; assay: co-IP; mESC lines stably expressing FS2-AEBP2 or FS2-C17ORF96 homologue; immunoprecipitation with the Flag-2xStrepII (FS2) antibody or the JARID2 antibody, immunoblot

Row | Binder | binding [3] | further results
1 | B1 | – | binding [1]: binds
2 | B2 | – | binding [2]: binds
3 | B3 | no binding | –
4 | B4 | no binding | –
